Publication PMC5953544
Like-named read-outs stand apart in the source and are kept apart here. Results are given in words; binding and its absence hold for the method and conditions named. In cells and extracts the contact can be indirect. Here binding means that the protein was enriched with, or labelled near, the bait; the list need not be complete. Where a sequence is shown, tags or fusion partners need not be part of it.

B1: Tbx6-venus (protein, UniProt P70327 1-436)
chain: MYHPRELYPSLGTGYRLGHPQPGADSTFPPALTEGYRYPDLDTSKLDCFLSGIEAAPHTLAAAAPLPLLPSALGPETAPPPPEALHSLPGVSLSLENQELWKEFSAVGTEMIITKAGRRMFPACRVSVTGLDPEARYLFLLDVVPVDGARYRWQGQHWEPSGKAEPRLPDRVYIHPDSPATGAHWMRQPVSFHRVKLTNSTLDPHGHLILHSMHKYQPRIHLVRATQLCSQHWGGVASFRFPETTFISVTAYQNPRITQLKIAANPFAKGFRENGRNCKRERDARVKRKLRGPEPVATEACGSGDTPGGPCDSTLGGDIRDSDPEQAPTPQEAASASAPPCGGPSAEAYLLHPAAFHGAPSHLPARTPSFAEAPDPGRPAPYSAAFLDLQPGPGGSAYQAAPSVPSFAPHFIQGGPFPLPYPGPGGYLDMGSKPMY

What was measured:
[1] = biological target: T1, FLAG-Ripply2 (mouse) (UniProt Q2WG76); test: affinity purification with mass spectrometry; lysate of PSM-fated Tbx6-venus ES cells after 3 hr Dox; anti-FLAG beads overnight, at least eight washes, elution with 150 μg/mL 3xFLAG peptide, gradient gel, mass spectrometry; control cells without FLAG-Ripply2
T1 sequence: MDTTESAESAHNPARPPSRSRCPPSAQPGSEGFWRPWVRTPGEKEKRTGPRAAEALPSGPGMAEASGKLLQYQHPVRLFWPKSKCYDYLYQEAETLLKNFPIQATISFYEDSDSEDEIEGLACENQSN

[2] = biological target: T1, FLAG-Ripply2 (mouse); test: as above; remark: listed apart in the source

| Molecule | binding [1] | binding [2] |
| --- | --- | --- |
| TLE (mouse (endogenous in TT2 ES cells)) | binds |  |
| B1 |  | binds |
